We go through 39 sequences from article PMC7862700.

The list shows a part of the results, in another mix than the full data. At the low end of the ranking the order means little.

The assay addresses SPI1 (UniProt P17947). Put plainly: DAPPL (digital affinity profiling via proximity ligation, sequencing). Conditions: 10 mM Tris-HCl pH 7.5, 50 mM NaCl, 1 mM DTT, 4% glycerol, room temperature, 30 min; GST-TFs on glutathione beads, 16-mer random dsDNA library, 0.1% …; high values mean tight binding; double strand, one strand shown; scale: fold enrichment (6-mer frequency, TF over GST control).
Take GTCAGG: the binding signal came to 0.528.
The result for CCGTGG reads 0.423.
Under CGTGCA stands 0.705.
Under GTCGAG stands 0.462.
For the sequence GGGCGC, the binding signal came out at 0.57.
Sequence ACACAG gave a binding signal of 0.847.
The result for GGGCAC reads 0.851.
Under ATCGGT stands 0.644.
The result for GGAAAG reads 0.864.
Turning to AGAACG, the binding signal was determined as 0.426.
Under GTGCGG stands 0.755.
Under GGGGGA stands 0.559; under TACCAG, 0.855; under GACGGG, 0.434.
The result for GTGCGT reads 0.628.
GACACG displayed a binding signal of 0.642.
GTGACG gave a binding signal of 0.848.
Under GCCGGC stands 0.818; under GCGGTC, 0.679; under GCAGTC, 0.481.
Under AGGCTG stands 0.642; under CTAGTC, 0.777.
The result for CGTGGT reads 0.583; that for GACGCC, 0.912.
On to GAGAGG, for which the binding signal worked out at 0.396.
The result for CCGCGA reads 0.686; that for GAGCCA, 0.589; that for GATTGA, 0.919.
For the sequence GGCGTC, the binding signal is 0.793.
Under GACACC stands 0.871.
Under CAATCG stands 0.879; under CGAGTG, 0.749; under CGCAAG, 0.789.
The result for GGCCGG reads 0.55.
Consider GGCAAG, for which the binding signal was 0.704.
The result for GGCAGT reads 0.48; that for TTCGTG, 0.822.
Under GAGTTA stands 0.628; under TGTCGG, 0.373.
